Measured values taken from ChEMBL document CHEMBL1129578, “Tetrahydronaphthalenes: influence of heterocyclic substituents on inhibition of steroid enzymes P450 arom and P450 17” (J Med Chem, 1996).

Experiments:
[1] = target: T1, Steroid 17-alpha-hydroxylase/17,20 lyase (Rattus norvegicus, UniProt P11715)
T1 sequence (P11715 whole entry): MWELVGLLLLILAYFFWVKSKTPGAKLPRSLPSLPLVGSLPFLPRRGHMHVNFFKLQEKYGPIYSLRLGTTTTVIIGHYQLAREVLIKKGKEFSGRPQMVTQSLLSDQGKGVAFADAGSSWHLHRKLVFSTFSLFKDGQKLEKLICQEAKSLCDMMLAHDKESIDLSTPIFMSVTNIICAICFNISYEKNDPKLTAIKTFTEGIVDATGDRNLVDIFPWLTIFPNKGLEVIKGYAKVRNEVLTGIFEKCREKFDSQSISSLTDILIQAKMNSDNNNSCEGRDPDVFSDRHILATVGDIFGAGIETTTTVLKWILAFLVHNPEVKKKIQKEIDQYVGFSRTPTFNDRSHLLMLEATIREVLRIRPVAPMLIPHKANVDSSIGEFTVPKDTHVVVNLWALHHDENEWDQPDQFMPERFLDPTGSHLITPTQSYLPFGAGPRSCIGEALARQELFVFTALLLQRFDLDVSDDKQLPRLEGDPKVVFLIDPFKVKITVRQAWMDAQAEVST

Aromatase [2] = target: T2, Aromatase (Homo sapiens, UniProt P11511)
T2 sequence (P11511 whole entry): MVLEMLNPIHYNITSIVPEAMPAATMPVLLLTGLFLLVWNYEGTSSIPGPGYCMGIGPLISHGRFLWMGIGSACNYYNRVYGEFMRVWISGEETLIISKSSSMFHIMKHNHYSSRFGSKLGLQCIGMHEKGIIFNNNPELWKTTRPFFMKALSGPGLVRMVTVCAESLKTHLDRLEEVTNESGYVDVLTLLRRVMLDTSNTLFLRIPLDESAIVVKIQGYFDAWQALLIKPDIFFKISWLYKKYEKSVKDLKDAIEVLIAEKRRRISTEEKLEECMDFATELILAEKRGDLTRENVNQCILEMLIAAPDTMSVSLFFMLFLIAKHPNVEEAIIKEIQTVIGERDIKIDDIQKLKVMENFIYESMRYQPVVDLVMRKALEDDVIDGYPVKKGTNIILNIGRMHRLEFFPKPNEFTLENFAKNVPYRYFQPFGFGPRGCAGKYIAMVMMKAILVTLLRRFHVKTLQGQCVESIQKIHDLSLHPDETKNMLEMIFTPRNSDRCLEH

Aromatase [3] = target: T2, Aromatase; remark: listed apart in the source

SMILES | IC50 (Aromatase [3]) [µM] | also measured
O=C1/C(=C/c2c[nH]cn2)CCc2ccccc21 | – | IC50 [1]: 31 µM
O=C1c2ccccc2CCC1C(O)c1cccnn1 (stereo not given) | – | IC50 (Aromatase [2]): > 250 µM
O=C1c2ccccc2CCC1C(O)c1cnccn1 (stereo not given) | – | IC50 (Aromatase [2]): > 250 µM
c1ccc(C2C3CCc4ccccc4C32)nc1 (stereo not given) | > 250 | –
Nc1ncc(/C=C2\CCc3ccccc3C2=O)s1 | > 250 | –
O=C1/C(=C/c2cccnn2)CCc2ccccc21 | > 250 | –
O=C1/C(=C/c2ccnnc2)CCc2ccccc21 | 103 | –
c1ccc2c(c1)CCC1C(c3ccsc3)C21 (stereo not given) | > 250 | –
O=C1/C(=C\c2c[nH]cn2)CCc2ccccc21 | – | IC50 [1]: 74 µM
O=C1/C(=C/c2ccccc2)CCc2ccccc21 | > 250 | –
c1ccc2c(c1)CCC1C(c3c[nH]cn3)C21 (stereo not given) | – | IC50 [1]: 90 µM
O=C1/C(=C/c2ccccn2)CCc2ccccc21 | > 250 | –
O=C1/C(=C/c2ccsc2)CCc2ccccc21 | > 250 | –
c1ccc(C2C3CCc4ccccc4C32)cc1 (stereo not given) | > 250 | –
O=C1c2ccccc2CCC1C(O)c1ccnnc1 (stereo not given) | – | IC50 (Aromatase [2]): > 250 µM
